In patent publication US20220074937A1:
Results are given in words; binding and its absence hold for the method and conditions named.

Assays:
[1] = biological target: BCMA CAR on the cell surface (BCMA CAR-T cells); experiment: flow cytometry on BCMA CAR-T cells
[2] = biological target: BCMA CAR on the cell surface (BCMA CAR-T cells); experiment: flow cytometry on BCMA CAR-T cells, goat anti-rabbit IgG-Alexa Fluor 488

binding [1]: no binding | binding [2]: no binding
B1: rabbit monoclonal antibody R19mab against FMC63 scFv (antibody, V domains shown)
VH: QSLEESGGRLVTPGTPLTLTCTVSGIDFRNYGVSWVRQAPGKGLEWIGIFSSSGSTYYATWAKGRFTISKASSTTVDLKMTSLTTEDTATYFCARHPGPTNGWKLWGPGTLVTVSS
VL: DVVMTQTPASVEAPVGGTVTIKCQASQSVSGYCSWYQQKPGQPPKLLIYRASTLESGVPSRFSGSGSGTDFTLTISDLECADAATYYCQSNYNSGSSSSAAAFGGGTEVVVK
